Reference: PubChem BioAssay AID1224830 (NIAID, 2016)

Screen: 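Host factors that control LPS-induced TNF expression in human macrophages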 (primary screen)
Cells: human THP-1 monocytic leukaemia cells, TNF dual-luciferase reporter clone, PMA-differentiated to macrophage-like cells
Knock-down reagent: siRNA pool against human genes, 50 nM
Duration: LPS for 4 h, given about 3 days after siRNA transfection
Conditions: bacterial LPS (TLR4 ligand), 10 ng/ml
Read-out: 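Ratio of firefly to renilla light, scaled to the plate median and expressed as a robust z-score per replicate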
Direction: TNF reporter robust z-score: higher = stronger TNF reporter response to LPS
Call rule: 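Each well counts as active if its z-score is over 2.8 or under -1.5; controls are left without a call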
This is an unselected part of about 18,000 reagents tested. About 2,900 of all reagents (16%) were called active. 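Calls are made per well; low scores hint the gene aids the LPS response, high scores that it dampens it.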 Repeated entries: four replicate wells of each siRNA pool. No sequences are given here.

| gene symbol | PubChem SID | TNF reporter robust z-score | call |
| --- | --- | --- | --- |
| POLR3G (RNA polymerase III subunit G) | SID315454243 | -0.2 | inactive |
| POLR3G (RNA polymerase III subunit G) | SID315454243 | 0.12 | inactive |
| POLR3G (RNA polymerase III subunit G) | SID315454243 | 0.15 | inactive |
| POLR3G (RNA polymerase III subunit G) | SID315454243 | 0.42 | inactive |
| ARMC1 (armadillo repeat containing 1) | SID315457451 | -0.81 | inactive |
| ARMC1 (armadillo repeat containing 1) | SID315457451 | -0.78 | inactive |
| ARMC1 (armadillo repeat containing 1) | SID315457451 | -1.23 | inactive |
| ARMC1 (armadillo repeat containing 1) | SID315457451 | -0.83 | inactive |
| GDE1 (glycerophosphodiester phosphodiesterase 1) | SID315456788 | 0.8 | inactive |
| GDE1 (glycerophosphodiester phosphodiesterase 1) | SID315456788 | 1.07 | inactive |
| GDE1 (glycerophosphodiester phosphodiesterase 1) | SID315456788 | 0.87 | inactive |
| GDE1 (glycerophosphodiester phosphodiesterase 1) | SID315456788 | 0.76 | inactive |
| GLMP (glycosylated lysosomal membrane protein) | SID315461156 | -0.57 | inactive |
| GLMP (glycosylated lysosomal membrane protein) | SID315461156 | -0.17 | inactive |
| GLMP (glycosylated lysosomal membrane protein) | SID315461156 | -0.37 | inactive |
| GLMP (glycosylated lysosomal membrane protein) | SID315461156 | -0.89 | inactive |
| CELSR2 (cadherin EGF LAG seven-pass G-type receptor 2) | SID315448457 | -0.85 | inactive |
| CELSR2 (cadherin EGF LAG seven-pass G-type receptor 2) | SID315448457 | -1.08 | inactive |
| CELSR2 (cadherin EGF LAG seven-pass G-type receptor 2) | SID315448457 | -0.68 | inactive |
| AADAC (arylacetamide deacetylase) | SID315447121 | 0.26 | inactive |
| AADAC (arylacetamide deacetylase) | SID315447121 | 0.18 | inactive |
| AADAC (arylacetamide deacetylase) | SID315447121 | 0.17 | inactive |
| AADAC (arylacetamide deacetylase) | SID315447121 | 0.57 | inactive |
| SV2B (synaptic vesicle glycoprotein 2B) | SID315453657 | 1.44 | inactive |
| SV2B (synaptic vesicle glycoprotein 2B) | SID315453657 | 0.66 | inactive |
| SV2B (synaptic vesicle glycoprotein 2B) | SID315453657 | 1.56 | inactive |
| SV2B (synaptic vesicle glycoprotein 2B) | SID315453657 | 0.74 | inactive |
| ATP9B (ATPase phospholipid transporting 9B) | SID315464332 | 0.48 | inactive |
| ATP9B (ATPase phospholipid transporting 9B) | SID315464332 | 0.99 | inactive |
| ATP9B (ATPase phospholipid transporting 9B) | SID315464332 | 0.08 | inactive |
| ATP9B (ATPase phospholipid transporting 9B) | SID315464332 | 1.28 | inactive |
| CLPX | SID315454395 | -0.91 | inactive |
| CLPX | SID315454395 | -0.9 | inactive |
| CLPX | SID315454395 | 0.21 | inactive |
| CLPX | SID315454395 | 1.39 | inactive |
| POU3F1 (POU class 3 homeobox 1) | SID315450710 | 0.15 | inactive |
| POU3F1 (POU class 3 homeobox 1) | SID315450710 | 0.91 | inactive |
| POU3F1 (POU class 3 homeobox 1) | SID315450710 | 0.27 | inactive |
| POU3F1 (POU class 3 homeobox 1) | SID315450710 | 0.26 | inactive |
| NARS2 (asparaginyl-tRNA synthetase 2, mitochondrial) | SID315459420 | -0.34 | inactive |
| NARS2 (asparaginyl-tRNA synthetase 2, mitochondrial) | SID315459420 | 0.15 | inactive |
| NARS2 (asparaginyl-tRNA synthetase 2, mitochondrial) | SID315459420 | -0.55 | inactive |
| NARS2 (asparaginyl-tRNA synthetase 2, mitochondrial) | SID315459420 | -0.36 | inactive |
| SSX9P (SSX family member 9, pseudogene) | SID315463614 | -1.08 | inactive |
| SSX9P (SSX family member 9, pseudogene) | SID315463614 | -0.97 | inactive |
| SSX9P (SSX family member 9, pseudogene) | SID315463614 | -0.73 | inactive |
| SSX9P (SSX family member 9, pseudogene) | SID315463614 | 0.13 | inactive |
| CEACAM5 (CEA cell adhesion molecule 5) | SID315447869 | -0.87 | inactive |
| CEACAM5 (CEA cell adhesion molecule 5) | SID315447869 | -0.64 | inactive |
| CEACAM5 (CEA cell adhesion molecule 5) | SID315447869 | 0.37 | inactive |
| CEACAM5 (CEA cell adhesion molecule 5) | SID315447869 | 0.11 | inactive |
| SHISA3 (shisa family member 3) | SID315462538 | 0.21 | inactive |
| SHISA3 (shisa family member 3) | SID315462538 | 0.63 | inactive |
| SHISA3 (shisa family member 3) | SID315462538 | 0 | inactive |
| SHISA3 (shisa family member 3) | SID315462538 | -0.4 | inactive |
| CACNG1 (calcium voltage-gated channel auxiliary subunit gamma 1) | SID315447666 | 0.01 | inactive |
| CACNG1 (calcium voltage-gated channel auxiliary subunit gamma 1) | SID315447666 | 0.02 | inactive |
| CACNG1 (calcium voltage-gated channel auxiliary subunit gamma 1) | SID315447666 | -1 | inactive |
| CACNG1 (calcium voltage-gated channel auxiliary subunit gamma 1) | SID315447666 | -0.19 | inactive |

Continued; the last 11 above are carried over.
| gene symbol | PubChem SID | TNF reporter robust z-score | call |
| --- | --- | --- | --- |
| CEACAM5 (CEA cell adhesion molecule 5) | SID315447869 | -0.64 | inactive |
| CEACAM5 (CEA cell adhesion molecule 5) | SID315447869 | 0.37 | inactive |
| CEACAM5 (CEA cell adhesion molecule 5) | SID315447869 | 0.11 | inactive |
| SHISA3 (shisa family member 3) | SID315462538 | 0.21 | inactive |
| SHISA3 (shisa family member 3) | SID315462538 | 0.63 | inactive |
| SHISA3 (shisa family member 3) | SID315462538 | 0 | inactive |
| SHISA3 (shisa family member 3) | SID315462538 | -0.4 | inactive |
| CACNG1 (calcium voltage-gated channel auxiliary subunit gamma 1) | SID315447666 | 0.01 | inactive |
| CACNG1 (calcium voltage-gated channel auxiliary subunit gamma 1) | SID315447666 | 0.02 | inactive |
| CACNG1 (calcium voltage-gated channel auxiliary subunit gamma 1) | SID315447666 | -1 | inactive |
| CACNG1 (calcium voltage-gated channel auxiliary subunit gamma 1) | SID315447666 | -0.19 | inactive |
| LRRFIP1 (LRR binding FLII interacting protein 1) | SID315453122 | 0.22 | inactive |
| LRRFIP1 (LRR binding FLII interacting protein 1) | SID315453122 | 0.92 | inactive |
| LRRFIP1 (LRR binding FLII interacting protein 1) | SID315453122 | 0.05 | inactive |
| LRRFIP1 (LRR binding FLII interacting protein 1) | SID315453122 | 0.58 | inactive |
| PSG9 (pregnancy specific beta-1-glycoprotein 9) | SID315450880 | 1.08 | inactive |
| PSG9 (pregnancy specific beta-1-glycoprotein 9) | SID315450880 | 0.52 | inactive |
| PSG9 (pregnancy specific beta-1-glycoprotein 9) | SID315450880 | -0.85 | inactive |
| PSG9 (pregnancy specific beta-1-glycoprotein 9) | SID315450880 | -0.49 | inactive |
| SELENOW (selenoprotein W) | SID315451375 | -0.92 | inactive |
| SELENOW (selenoprotein W) | SID315451375 | -0.4 | inactive |
| SELENOW (selenoprotein W) | SID315451375 | -0.58 | inactive |
| SELENOW (selenoprotein W) | SID315451375 | 0.28 | inactive |
| RRP9 | SID315453073 | -0.45 | inactive |
| RRP9 | SID315453073 | -1.52 | active |
| RRP9 | SID315453073 | -0.27 | inactive |
| RRP9 | SID315453073 | -0.67 | inactive |
| TAMM41 | SID315461909 | 1.19 | inactive |
| TAMM41 | SID315461909 | 0.2 | inactive |
| TAMM41 | SID315461909 | 1.05 | inactive |
| TAMM41 | SID315461909 | 0.06 | inactive |
| SDK2 (sidekick cell adhesion molecule 2) | SID315457075 | -1.01 | inactive |
| SDK2 (sidekick cell adhesion molecule 2) | SID315457075 | -1.63 | active |
| SDK2 (sidekick cell adhesion molecule 2) | SID315457075 | -1.83 | active |
| SDK2 (sidekick cell adhesion molecule 2) | SID315457075 | -0.89 | inactive |
| CLCN1 (chloride voltage-gated channel 1) | SID315447955 | 1.2 | inactive |
| CLCN1 (chloride voltage-gated channel 1) | SID315447955 | 3.39 | active |
| CLCN1 (chloride voltage-gated channel 1) | SID315447955 | 3.02 | active |
| CLCN1 (chloride voltage-gated channel 1) | SID315447955 | 2.23 | inactive |
| ULK1 (unc-51 like autophagy activating kinase 1) | SID315452543 | 0.07 | inactive |
| ULK1 (unc-51 like autophagy activating kinase 1) | SID315452543 | -0.69 | inactive |
| ULK1 (unc-51 like autophagy activating kinase 1) | SID315452543 | -0.36 | inactive |
| ULK1 (unc-51 like autophagy activating kinase 1) | SID315452543 | -0.56 | inactive |
| OGDH (oxoglutarate dehydrogenase) | SID315450351 | 0.17 | inactive |
| OGDH (oxoglutarate dehydrogenase) | SID315450351 | 0.42 | inactive |
| OGDH (oxoglutarate dehydrogenase) | SID315450351 | 0.1 | inactive |
| OGDH (oxoglutarate dehydrogenase) | SID315450351 | 0.72 | inactive |
| EFNB2 (ephrin B2) | SID315448453 | 0.11 | inactive |
| EFNB2 (ephrin B2) | SID315448453 | -0.01 | inactive |
| EFNB2 (ephrin B2) | SID315448453 | -0.31 | inactive |
| EFNB2 (ephrin B2) | SID315448453 | 0.88 | inactive |
| ZNF649 (zinc finger protein 649) | SID315459100 | 0.14 | inactive |
| ZNF649 (zinc finger protein 649) | SID315459100 | 1.68 | inactive |
| ZNF649 (zinc finger protein 649) | SID315459100 | 0.68 | inactive |
| ZNF649 (zinc finger protein 649) | SID315459100 | 2.28 | inactive |
| RGS21 (regulator of G protein signaling 21) | SID315464874 | -0.28 | inactive |
| RGS21 (regulator of G protein signaling 21) | SID315464874 | -0.05 | inactive |
| RGS21 (regulator of G protein signaling 21) | SID315464874 | -0.68 | inactive |
| RGS21 (regulator of G protein signaling 21) | SID315464874 | -0.67 | inactive |
| CASK (calcium/calmodulin dependent serine protein kinase) | SID315452668 | -0.02 | inactive |
| CASK (calcium/calmodulin dependent serine protein kinase) | SID315452668 | 0.37 | inactive |
| CASK (calcium/calmodulin dependent serine protein kinase) | SID315452668 | -0.43 | inactive |
| CASK (calcium/calmodulin dependent serine protein kinase) | SID315452668 | -0.76 | inactive |
| MRPL42 (mitochondrial ribosomal protein L42) | SID315456092 | -0.57 | inactive |
| MRPL42 (mitochondrial ribosomal protein L42) | SID315456092 | -0.09 | inactive |
| MRPL42 (mitochondrial ribosomal protein L42) | SID315456092 | -0.23 | inactive |
| MRPL42 (mitochondrial ribosomal protein L42) | SID315456092 | 1.47 | inactive |
| CD151 (CD151 molecule (Raph blood group)) | SID315447812 | -0.59 | inactive |
| CD151 (CD151 molecule (Raph blood group)) | SID315447812 | 2.79 | inactive |
| CD151 (CD151 molecule (Raph blood group)) | SID315447812 | 3.38 | active |
| CD151 (CD151 molecule (Raph blood group)) | SID315447812 | 1.99 | inactive |
| KCNIP4 (potassium voltage-gated channel interacting protein 4) | SID315459761 | 2.36 | inactive |
| KCNIP4 (potassium voltage-gated channel interacting protein 4) | SID315459761 | 2.11 | inactive |
| KCNIP4 (potassium voltage-gated channel interacting protein 4) | SID315459761 | 0.43 | inactive |
| KCNIP4 (potassium voltage-gated channel interacting protein 4) | SID315459761 | 0.5 | inactive |
| CAV3 (caveolin 3) | SID315447717 | -1.48 | inactive |
| CAV3 (caveolin 3) | SID315447717 | -1.19 | inactive |
| CAV3 (caveolin 3) | SID315447717 | -1.51 | active |
| CAV3 (caveolin 3) | SID315447717 | -1.38 | inactive |
| VPS33B (VPS33B late endosome and lysosome associated) | SID315455755 | 0.06 | inactive |
| VPS33B (VPS33B late endosome and lysosome associated) | SID315455755 | 0.59 | inactive |
| VPS33B (VPS33B late endosome and lysosome associated) | SID315455755 | 0.12 | inactive |
| VPS33B (VPS33B late endosome and lysosome associated) | SID315455755 | 0.24 | inactive |
| MED27 (mediator complex subunit 27) | SID315453287 | 1.04 | inactive |
| MED27 (mediator complex subunit 27) | SID315453287 | 1.89 | inactive |
| MED27 (mediator complex subunit 27) | SID315453287 | 0.94 | inactive |
| MED27 (mediator complex subunit 27) | SID315453287 | 1.14 | inactive |
| TTLL10 (tubulin tyrosine ligase like 10) | SID315463445 | -0.39 | inactive |
| TTLL10 (tubulin tyrosine ligase like 10) | SID315463445 | -0.24 | inactive |
| TTLL10 (tubulin tyrosine ligase like 10) | SID315463445 | -0.84 | inactive |
| TTLL10 (tubulin tyrosine ligase like 10) | SID315463445 | 0.57 | inactive |
| CRYBB2 (crystallin beta B2) | SID315448107 | -0.26 | inactive |
| CRYBB2 (crystallin beta B2) | SID315448107 | 0.72 | inactive |
| CRYBB2 (crystallin beta B2) | SID315448107 | 0.43 | inactive |
| CRYBB2 (crystallin beta B2) | SID315448107 | 0.15 | inactive |
